From patent US20040265797A1
No constants are given. Whether binding was seen depends on the method and setting. Some binding calls cover weakened binding; strength is not graded here.

By UniProt entry, the sequences of proteins in these tests, tags left out. Residues count along the entry.
UniProt Q03405, residues 23-299: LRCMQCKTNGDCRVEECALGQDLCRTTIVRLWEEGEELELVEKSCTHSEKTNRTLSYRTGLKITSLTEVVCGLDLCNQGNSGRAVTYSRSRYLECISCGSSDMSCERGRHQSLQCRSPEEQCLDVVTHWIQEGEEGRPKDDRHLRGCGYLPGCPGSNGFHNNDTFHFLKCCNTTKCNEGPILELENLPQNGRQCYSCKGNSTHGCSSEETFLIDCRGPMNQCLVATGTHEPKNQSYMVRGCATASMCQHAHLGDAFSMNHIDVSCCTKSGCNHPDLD

Molecular target: Soluble recombinant human urokinase receptor (suPAR) (human) (UniProt Q03405)
Experiment: competition with phage displaying peptide 25 for uPAR; Active? @ 40 µM

Binder | binding
AESTYHHLSLGYMYTLN (N-terminal acetyl; C-terminal amide (Ac-oligomer-NH2)) [Analog 5] | binds
AESTYHHLSLGYMYTL (N-terminal acetyl; C-terminal amide (Ac-oligomer-NH2)) [Analog 6] | binds
AESTYHHLSLGYMYT (N-terminal acetyl; C-terminal amide (Ac-oligomer-NH2)) [Analog 7] | binds
ESTYHHLSLGYMYTLN (N-terminal acetyl; C-terminal amide (Ac-oligomer-NH2)) [Analog 15] | binds
STYHHLSLGYMYTLN (N-terminal acetyl; C-terminal amide (Ac-oligomer-NH2)) [Analog 16] | binds
TYHHLSLGYMYTLN (N-terminal acetyl; C-terminal amide (Ac-oligomer-NH2)) [Analog 17] | binds
YHHLSLGYMYTLN (N-terminal acetyl; C-terminal amide (Ac-oligomer-NH2)) [Analog 18] | binds
YHHLSLGYMYT (N-terminal acetyl; C-terminal amide (Ac-oligomer-NH2)) [Analog 28] | binds

Molecular target: Soluble recombinant human urokinase receptor (suPAR) (human) (UniProt Q03405)
Experiment: alanine scan of peptide 9; competition with phage displaying peptide 9

Binder | binding
AAFFKLGPNGYVYLHSA (C-terminal carboxamide) [Analog 65 (peptide 9, Glu at position 2 to alanine)] | binds
AEFAKLGPNGYVYLHSA (C-terminal carboxamide) [Analog 67 (peptide 9, Phe at position 4 to alanine)] | binds
AEFFKLGPNGYVYAHSA (C-terminal carboxamide) [Analog 77 (peptide 9, Leu at position 14 to alanine)] | binds
